PubChem BioAssay AID248 (DTP/NCI, 2004)
The list does not hold the whole screen: it is rich in T/C values a quarter to a half above the control, in often repeated tests (any T/C) and in doses without a T/C. Further doses and runs are listed elsewhere. T/C: endpoint of the treated group in % of that of the vehicle group. Some doses have a count of surviving animals in place of a T/C: the source files T/C as zero there, which appears to mark a toxic dose or a test without result, not a measured value. Some doses without a T/C left all or most animals alive at the check, yet need not have been tolerated: survival well below the control is almost never listed, so the zero probably covers shortened survival too. Survivors were counted at the toxicity check, usually on the fifth day, unless a day is given; later deaths do not show. Schedule codes are those of the source, taken here to give the interval after Q, in days (D) or hours (H), and the number of doses after X. Where survival is the endpoint, the PubChem record calls one and a half times the control and up active, and a quarter to a half above the control has no call in these data; cut-offs in other NCI protocols can differ. Some T/C values carry the count of animals alive at the toxicity check (mostly the fifth day); where none is given, no animal had died by that day.

System: L1210 leukemia ip in BDF1 mice, survival T/C
Assay: NCI In Vivo Anticancer Drug Screen. Data for tumor model L1210 Leukemia (intraperitoneal) in B6D2F1 (BDF1) mice
Details: T/C endpoint: mean survival time, higher T/C = longer survival
[1] = dose: 400.0 mg/kg/injection, schedule: Q04DX003 (ip), vehicle: Klucel (hydroxypropylcellulose) (HPC)
[2] = dose: 200.0 mg/kg/injection, schedule: Q04DX003 (ip), vehicle: saline
[3] = dose: 400.0 mg/kg/injection, schedule: Q04DX003 (ip), vehicle: saline
[4] = dose: 100.0 mg/kg/injection, schedule: Q04DX002 (ip), vehicle: Klucel (hydroxypropylcellulose) (HPC)
[5] = dose: 200.0 mg/kg/injection, schedule: Q04DX002 (ip), vehicle: Klucel (hydroxypropylcellulose) (HPC)
[6] = dose: 400.0 mg/kg/injection, schedule: Q04DX002 (ip), vehicle: Klucel (hydroxypropylcellulose) (HPC)
[7] = dose: 100.0 mg/kg/injection, schedule: Q01DX009 (ip), vehicle: Klucel (hydroxypropylcellulose) (HPC)
[8] = dose: 400.0 mg/kg/injection, schedule: Q01DX009 (ip), vehicle: Klucel (hydroxypropylcellulose) (HPC)
[9] = dose: 50.0 mg/kg/injection, schedule: Q01DX001 (ip), vehicle: carboxymethylcellulose (CMC)
[10] = dose: 400.0 mg/kg/injection, schedule: Q01DX001 (ip), vehicle: carboxymethylcellulose (CMC)
[11] = dose: 400.0 mg/kg/injection, schedule: Q01DX009 (ip), vehicle: saline
[12] = dose: 200.0 mg/kg/injection, schedule: Q01DX001 (ip), vehicle: saline
[13] = dose: 200.0 mg/kg/injection, schedule: Q04DX003 (ip), vehicle: Klucel (hydroxypropylcellulose) (HPC)
[14] = dose: 400.0 mg/kg/injection, schedule: Q04DX003 (ip), vehicle: saline with Tween-80
[15] = dose: 400.0 mg/kg/injection, schedule: Q01DX001 (ip), vehicle: saline

## C1=NCCCN2CCCCC12 (configuration not stated)
dose: 37.5 mg/kg/injection, schedule: Q01DX009 (ip), vehicle: Klucel (hydroxypropylcellulose) (HPC)
  survivor count: 0 of 6
dose: 75.0 mg/kg/injection, schedule: Q01DX009 (ip), vehicle: Klucel (hydroxypropylcellulose) (HPC)
  survivor count: 0 of 6
dose: 150.0 mg/kg/injection, schedule: Q01DX009 (ip), vehicle: Klucel (hydroxypropylcellulose) (HPC)
  survivor count: 0 of 6
dose: 300.0 mg/kg/injection, schedule: Q01DX009 (ip), vehicle: Klucel (hydroxypropylcellulose) (HPC)
  survivor count: 0 of 6

## O=NN(CCCl)C(=O)NC1CCC(NC(=O)N(CCCl)N=O)CC1 (configuration not stated)
dose: 337.0 mg/kg/injection, schedule: Q01DX001 (ip), vehicle: other
  survivor count: 9 of 9

## N#CC1CNC(=S)N=C1c1ccccc1 (configuration not stated)
[1]
  survivor count: 1 of 6

## O=C[N]([Hg][Cl])c1ccccc1
dose: 3.13 mg/kg/injection, schedule: Q01DX009 (ip), vehicle: saline
  survivor count: 6 of 6
dose: 6.25 mg/kg/injection, schedule: Q01DX009 (ip), vehicle: saline
  survivor count: 4 of 6
dose: 100.0 mg/kg/injection, schedule: Q04DX002 (ip), vehicle: saline with Tween-80
  survivor count: 0 of 3
dose: 200.0 mg/kg/injection, schedule: Q04DX002 (ip), vehicle: saline with Tween-80
  survivor count: 0 of 3
dose: 400.0 mg/kg/injection, schedule: Q04DX002 (ip), vehicle: saline with Tween-80
  survivor count: 0 of 3

## CCC12CCCN3C(=O)CC(C(=O)CC1)C32 (configuration not stated)
[2]
  survivor count: 2 of 6
[3]
  survivor count: 0 of 6

## Cc1cccc(C(=O)N(C)C(c2ccco2)P(=O)(c2ccccc2)c2ccccc2)c1 (configuration not stated)
dose: 200.0 mg/kg/injection, schedule: Q01DX009 (ip), vehicle: carboxymethylcellulose (CMC)
  survivor count: 6 of 6

## C[CH2][Pb]([CH2]C)([CH2]C)[N]1C(=O)c2ccccc2C1=O
[4]
  survivor count: 1 of 3
[5]
  survivor count: 0 of 3
[6]
  survivor count: 0 of 3

## CC(=O)Nc1ccc(OC(=O)Nc2cc(C)ccc2C)cc1
[7]
  survivor count: 5 of 6
[8]
  survivor count: 4 of 6

## COc1ccc(-c2c(COC(C)=O)c(COC(C)=O)c3n2CCC3)cc1
[7]
  survivor count: 3 of 3
dose: 200.0 mg/kg/injection, schedule: Q01DX009 (ip), vehicle: Klucel (hydroxypropylcellulose) (HPC)
  T/C: 130 % of control

## Cc1csc(NC(=O)C2C3CCC(O3)C2C(=O)O)n1 (configuration not stated)
dose: 20.0 mg/kg/injection, schedule: Q01DX001 (ip), vehicle: carboxymethylcellulose (CMC)
  survivor count: 2 of 4
dose: 40.0 mg/kg/injection, schedule: Q01DX001 (ip), vehicle: carboxymethylcellulose (CMC)
  survivor count: 0 of 4
[9]
  survivor count: 0 of 4
dose: 80.0 mg/kg/injection, schedule: Q01DX001 (ip), vehicle: carboxymethylcellulose (CMC)
  survivor count: 0 of 4
dose: 100.0 mg/kg/injection, schedule: Q01DX001 (ip), vehicle: carboxymethylcellulose (CMC)
  survivor count: 0 of 4
dose: 200.0 mg/kg/injection, schedule: Q01DX001 (ip), vehicle: carboxymethylcellulose (CMC)
  survivor count: 0 of 4
[10]
  survivor count: 0 of 4

## S=C=NCc1ccccc1Cl
dose: 100.0 mg/kg/injection, schedule: Q01DX009 (ip), vehicle: saline
  survivor count: 6 of 6
dose: 200.0 mg/kg/injection, schedule: Q01DX009 (ip), vehicle: saline
  survivor count: 5 of 6
[11]
  survivor count: 5 of 6

## C=CCNC(=S)NNC(=O)CCCC(=O)NNC(=S)NCC=C
[12]
  survivor count: 4 of 4

## COc1ccc(/C=N/NC(N)=S)c(OC)n1
dose: 10.0 mg/kg/injection, schedule: Q04DX003 (ip), vehicle: Klucel (hydroxypropylcellulose) (HPC)
  T/C: 126 % of control [4 of 6 alive]
[13]
  survivor count: 3 of 6
[1]
  survivor count: 0 of 6

## CC(C)CCCC(C)C1CCC2C3CC(=O)NC4CC(Cl)CCC4(C)C3CCC12C (configuration not stated)
[2]
  survivor count: 6 of 6
[3]
  survivor count: 6 of 6

## CN(C)C(=O)c1cccc([N+](=O)[O-])c1
[14]
  survivor count: 6 of 6

## N#CC(C#N)=Cc1c(Cl)cccc1Cl
dose: 50.0 mg/kg/injection, schedule: Q01DX001 (ip), vehicle: Klucel (hydroxypropylcellulose) (HPC)
  survivor count: 2 of 6
dose: 100.0 mg/kg/injection, schedule: Q01DX001 (ip), vehicle: Klucel (hydroxypropylcellulose) (HPC)
  survivor count: 0 of 6
dose: 200.0 mg/kg/injection, schedule: Q01DX001 (ip), vehicle: Klucel (hydroxypropylcellulose) (HPC)
  survivor count: 1 of 6
dose: 400.0 mg/kg/injection, schedule: Q01DX001 (ip), vehicle: Klucel (hydroxypropylcellulose) (HPC)
  survivor count: 0 of 6

## CC(C)C(=O)[O][Pb]([c]1ccccc1)([c]1ccccc1)[c]1ccccc1
[4]
  survivor count: 0 of 3
[5]
  survivor count: 0 of 3
[6]
  survivor count: 0 of 3

## O=C(CBr)c1ccc(F)cc1
dose: 25.0 mg/kg/injection, schedule: Q01DX015 (ip), vehicle: carboxymethylcellulose (CMC)
  survivor count: 6 of 6
dose: 35.0 mg/kg/injection, schedule: Q01DX015 (ip), vehicle: carboxymethylcellulose (CMC)
  survivor count: 6 of 6
dose: 50.0 mg/kg/injection, schedule: Q01DX015 (ip), vehicle: carboxymethylcellulose (CMC)
  survivor count: 5 of 6
dose: 100.0 mg/kg/injection, schedule: Q01DX001 (ip), vehicle: saline
  survivor count: 0 of 6
[12]
  survivor count: 0 of 6
[15]
  survivor count: 0 of 6

## O=C(CCN1CC1)NCCc1ccccc1
dose: 80.0 mg/kg/injection, schedule: Q04DX003 (ip), vehicle: Klucel (hydroxypropylcellulose) (HPC)
  survivor count: 6 of 6
[13]
  survivor count: 2 of 6
[1]
  survivor count: 0 of 6

## CSc1ccc(NC(=O)N(CCCl)N=O)cc1
dose: 1.0 mg/kg/injection, schedule: Q01DX009 (ip), vehicle: other
  T/C: 147 % of control [5 of 6 alive]
dose: 3.0 mg/kg/injection, schedule: Q01DX001 (ip), vehicle: carboxymethylcellulose (CMC)
  T/C: 128 % of control
dose: 5.5 mg/kg/injection, schedule: Q01DX001 (ip), vehicle: carboxymethylcellulose (CMC)
  T/C: 146 % of control
dose: 6.0 mg/kg/injection, schedule: Q01DX009 (ip), vehicle: carboxymethylcellulose (CMC)
  T/C: 130 % of control
dose: 12.5 mg/kg/injection, schedule: Q01DX001 (ip), vehicle: carboxymethylcellulose (CMC)
  T/C: 142 % of control
dose: 18.0 mg/kg/injection, schedule: Q01DX009 (ip), vehicle: carboxymethylcellulose (CMC)
  survivor count: 6 of 6
dose: 27.0 mg/kg/injection, schedule: Q01DX001 (ip), vehicle: other
  T/C: 127 % of control
dose: 36.0 mg/kg/injection, schedule: Q01DX009 (ip), vehicle: carboxymethylcellulose (CMC)
  survivor count: 0 of 6
[9]
  survivor count: 2 of 4

## CCNCC#CCNCC
[11]
  survivor count: 2 of 6

## O=C(C[n+]1cccc(C(=O)Nc2ccc(Cl)cc2)c1)Nc1ccccc1
[3]
  survivor count: 0 of 6

## CCOC(=O)C(C(=O)O)C(C)C (configuration not stated)
[15]
  survivor count: 2 of 6

## CNS(=O)(=O)c1ccc(NC(=O)CCl)cc1
dose: 400.0 mg/kg/injection, schedule: Q04DX003 (ip), vehicle: other
  survivor count: 3 of 6

## O=C1/C(=C/c2cccnc2)CCc2ccccc21
[14]
  survivor count: 1 of 6

## c1ccc(N2N=NC3C4CC(C5COCC54)C32)cc1 (configuration not stated)
[7]
  T/C: 128 % of control
[8]
  survivor count: 6 of 6

## COc1ccc(/C=C\C(=O)NCCCCNC(=O)/C=C/c2ccc(OC)cc2)cc1
[15]
  survivor count: 6 of 6

## O=C(N/N=C\c1ccccc1Cl)c1ccco1
[10]
  survivor count: 0 of 4

## CNC(=O)Nc1ccc(Cl)cc1C
[8]
  survivor count: 2 of 6

## COc1ccc(/C=C/c2nccc3ccccc23)cc1OC
[4]
  survivor count: 3 of 3

## O=C(O)C12CCC(CC1)C1CCC2CC1
[4]
  survivor count: 1 of 3
[5]
  survivor count: 0 of 3
[6]
  survivor count: 0 of 3
